{"source": "PubChem BioAssay AID1347075", "about": "(National Center for Advancing Translational Sciences (NCATS), 2019)", "note": "Among all 400,000 compounds or so, about 5,500 (1.4%) were called active. Inconclusive means that the source gave no clear call. Such entries were picked first, then a sample of the others. Calls come from the whole dose curve; as a rule, active = well fitted cell-killing curve with a large enough effect; inconclusive = small, poorly fitted or top-dose-only effect, or effect the other way; inactive = flat fitted curve, though single readings scatter. Potencies of inconclusive entries are doubtful fits and often do not repeat. % is set by controls: 0 for no effect and ±100 for the full control effect; potency is the fitted concentration of half-maximal effect.", "data": [{"experiment": "qHTS assay for MDR1-selective chemotherapeutics: Primary screen using the parental adenocarcinoma cell KB-3-1; note: nearly all actives have a fitted effect of over 60% in size", "settings": "KB-3-1 viability, CellTiter-Glo ATP luminescence, 72 h; activity change, negative = cytotoxic: at 46.1 µM (top of the series)", "procedure,_shortened": "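Cells are dispensed, compounds pinned in, plates held at 37 °C for 72 h, then CellTiter-Glo is added and luminescence read after 10 minutes. Cell line: parental KB-3-1 in phenol-red-free DMEM, 10% FBS.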", "values": [{"smiles": "Cc1cc(C)c(C(=O)/C=C/c2cccc3ccccc23)c(=O)[nH]1", "Potency": "active: 6.51 µM"}, {"smiles": "COc1ccc2c(c1)CCC1C2=NN(/C(C)=C\\C(C)=O)C1c1ccc(F)cc1", "note": "(stereo not given)", "activity change, negative = cytotoxic": "inactive: -5.89%"}, {"smiles": "Cc1ccc(C)c(NC(=O)CSc2nnc(NC(=O)C3CC3)s2)c1", "activity change, negative = cytotoxic": "inactive: -16%"}, {"smiles": "COc1cc(NC(=O)CN2CCCN(S(=O)(=O)c3ccc(F)cc3)CC2)cc(OC)c1", "activity change, negative = cytotoxic": "inactive: -19.2%"}, {"smiles": "C[C@H](CO)N1C[C@H](C)[C@H](CN(C)C(=O)Nc2ccc(F)cc2)OCc2cnnn2CCCC1=O", "activity change, negative = cytotoxic": "inactive: -0.127%"}, {"smiles": "COc1ccc(C)cc1Nc1cc(C)nc2nc(C)nn12", "Potency": "active: 8.2 µM"}, {"smiles": "COc1ccc(C2C(C(=O)Nc3cccnc3)=C(C)Nc3nc(SCc4ccccc4)nn32)cc1", "note": "(stereo not given)", "activity change, negative = cytotoxic": "inactive: 9.48%"}, {"smiles": "C[C@@H]1CN([C@H](C)CO)C(=O)CCCn2cc(nn2)CO[C@H]1CN(C)C(=O)c1ccncc1", "activity change, negative = cytotoxic": "inactive: 0.0167%"}, {"smiles": "Cc1ccc(-c2cc(NC=O)c3ncc(-c4cnn(C)c4)n3c2)cc1", "Potency": "active: 10.3 µM"}, {"smiles": "Cc1c(C(=O)Nc2nc3ccccc3[nH]2)oc2ccccc12", "activity change, negative = cytotoxic": "inactive: -38%"}, {"smiles": "COC(=O)c1ccc(CSc2nnc(-c3c[nH]c4ccccc34)n2-c2ccccc2)cc1", "Potency": "inconclusive: 29.1 µM [rising, single point]"}, {"smiles": "Cc1cccn2c(CN[C@H]3CCCCNC3=O)c(C(=O)N3CCOCC3)nc12", "activity change, negative = cytotoxic": "inactive: 12.6%"}, {"smiles": "COc1ccc(-c2noc(-c3cc(-c4ccc(F)cc4)n[nH]3)n2)cc1", "Potency": "inconclusive: 29.1 µM [cytotoxic, single point]"}, {"smiles": "COc1ccc(CCC(=O)N2c3ccccc3N=C(c3ccc(C(F)(F)F)cc3)C2C(=O)NC2CCCC2)cc1", "note": "(stereo not given)", "Potency": "inconclusive: 14.6 µM [cytotoxic, single point]"}, {"smiles": "CCOc1ccc(NCc2nnc(SCC(=O)Nc3nc(-c4ccccc4)cs3)n2-c2ccccc2)cc1", "Potency": "inconclusive: 29.1 µM [cytotoxic, single point]"}, {"smiles": "COc1cc2c(cc1OC)C(C(=O)NCCN(C)C)C(c1cccs1)N(C)C2=O", "note": "(stereo not given)", "activity change, negative = cytotoxic": "inactive: -0.29%"}, {"smiles": "COc1ccccc1S(=O)(=O)Cc1ccc(C(=O)N2CCN(c3ccccc3)CC2)o1", "Potency": "inconclusive: 20.6 µM [cytotoxic, partial curve, poor fit]"}, {"smiles": "O=C(N/N=C/c1ccccc1Cl)c1ccncc1", "activity change, negative = cytotoxic": "inactive: 1.31%"}, {"smiles": "CC(=O)/C(N=Nc1cccc(C(F)(F)F)c1)=C(\\C)O", "activity change, negative = cytotoxic": "inactive: 21.5%"}, {"smiles": "Cc1ccc(-c2cc3nccc(-c4cc([N+](=O)[O-])ccc4O)n3n2)cc1", "Potency": "active: 23.1 µM"}, {"smiles": "CCN(CC)S(=O)(=O)c1cccc(NC(=O)CNc2cccc(S(=O)(=O)N3CCOCC3)c2)c1", "Potency": "active: 1.3 µM"}, {"smiles": "Cc1cccc(C(=O)Nc2ccc(S(=O)(=O)Nc3nc(C)cc(C)n3)cc2)c1", "Potency": "inconclusive: 4.61 µM [cytotoxic, full curve, poor fit]"}, {"smiles": "CCN(C(=S)Nc1cc(S(=O)(=O)N2CCOCC2)ccc1Cl)c1cccc2ccccc12", "activity change, negative = cytotoxic": "inactive: 8.97%"}, {"smiles": "COc1cc2c(cc1OC)C(C)N(C(=O)c1ccc(C)o1)CC2", "note": "(stereo not given)", "Potency": "inconclusive: 25.9 µM [cytotoxic, single point]"}, {"smiles": "CC(C)CC(=O)N1CCN(C(=O)c2ccc(-c3ccccc3)cc2)CC1", "Potency": "inconclusive: 32.6 µM [cytotoxic, single point]"}, {"smiles": "CN(C)CCCN(C(=O)c1ccc(S(=O)(=O)N2CCc3ccccc3C2)cc1)c1nc2ccc(F)cc2s1", "Potency": "inconclusive: 29.1 µM [cytotoxic, single point]"}, {"smiles": "Cc1cnc(NC(=O)COc2ccccc2)s1", "Potency": "inconclusive: 29.1 µM [cytotoxic, single point]"}, {"smiles": "CCCCCC(O)(c1ccc(OCC)cc1)C(CN1CCOCC1)c1ccccc1", "note": "(stereo not given)", "Potency": "inconclusive: 32.6 µM [cytotoxic, single point]"}, {"smiles": "C/C(=N\\N=C(N)N)c1ccc(Cl)cc1Cl", "Potency": "inconclusive: 29.1 µM [cytotoxic, single point]"}, {"smiles": "CC(C)C(C)(C#N)NC(=O)CSc1ncnc2sc(-c3ccccc3)cc12", "note": "(stereo not given)", "activity change, negative = cytotoxic": "inactive: -7.24%"}, {"smiles": "Cc1cc(C)c(NC(=O)COC(=O)c2ccncc2)c(C)c1", "activity change, negative = cytotoxic": "inactive: 9.22%"}, {"smiles": "[O-][n+]1ccc(C(O)c2ccccc2)cc1", "note": "(stereo not given)", "activity change, negative = cytotoxic": "inactive: 4.05%"}, {"smiles": "Oc1cccc2cc(-c3ccncc3)cnc12", "Potency": "inconclusive: 29.1 µM [cytotoxic, single point]"}, {"smiles": "O=C(Cc1ccc(F)cc1)N1CCC(CC2CC(c3ccc(Cl)cc3)=NO2)(C(=O)NCC2CCCCC2)CC1", "note": "(stereo not given)", "Potency": "inconclusive: 18.4 µM [cytotoxic, single point]"}, {"smiles": "COC(=O)[C@@]12C[C@@H](CC(=O)N3CCSCC3)C(=O)N(Cc3cccc4ccccc34)C1=CCC(C)(C)C2", "Potency": "inconclusive: 23.1 µM [cytotoxic, single point]"}, {"smiles": "O=C(CCl)N1N=C(c2cccs2)CC1c1ccco1", "note": "(stereo not given)", "Potency": "inconclusive: 25.9 µM [cytotoxic, single point]"}, {"smiles": "COc1cccc([C@@H]2Oc3ccc(Br)cc3C(=O)[C@H]2OC(=O)NC2CCCC2)c1", "Potency": "inconclusive: 29.1 µM [cytotoxic, single point]"}, {"smiles": "Cc1cccc(OCC(=O)Nc2ccc3c(c2)nc(CN2CCCCC2)n3C)c1", "Potency": "inconclusive: 13 µM [cytotoxic, partial curve, poor fit]"}, {"smiles": "COC(=O)c1ccc2c(=O)n(Cc3ccc(C(=O)NC(C)C)cc3)c(=S)[nH]c2c1", "Potency": "inconclusive: 29.1 µM [cytotoxic, single point]"}, {"smiles": "COc1ccc(CCn2c(=N)c(C(=O)NC3CCCC3)cc3c(=O)n4ccccc4nc32)cc1", "activity change, negative = cytotoxic": "inactive: -22.3%"}, {"smiles": "O=C(COCc1cc(-c2cccs2)on1)NCc1ccc(F)cc1", "activity change, negative = cytotoxic": "inactive: 5.41%"}, {"smiles": "CSc1ccc(C(=O)Nc2cc(S(=O)(=O)N3CCOCC3)ccc2N2CCOCC2)cc1[N+](=O)[O-]", "Potency": "inconclusive: 4.11 µM [cytotoxic, full curve]"}, {"smiles": "Cc1ccc(-n2ncc3c(N4CCN(Cc5ccccc5)CC4)ncnc32)cc1Cl", "activity change, negative = cytotoxic": "inactive: 4.34%"}, {"smiles": "COc1ccc(CN(C)C(=O)/C=C/c2ccc(S(=O)(=O)N3CCCCCC3)cc2)cc1", "Potency": "inconclusive: 29.1 µM [cytotoxic, single point]"}, {"smiles": "COc1ccc(-n2nnnc2-c2cnc(N3CCCC3)nc2C(F)(F)F)cc1", "Potency": "active: 18.4 µM"}, {"smiles": "O=C(NCCOc1ccccc1F)c1cc([N+](=O)[O-])ccc1N1CCOCC1", "Potency": "inconclusive: 1.64 µM [cytotoxic, partial curve, poor fit]"}, {"smiles": "CC(C)c1cccc(-c2csc(C(C)(O)c3ccncc3)n2)c1", "note": "(stereo not given)", "Potency": "inconclusive: 7.31 µM [cytotoxic, partial curve]"}, {"smiles": "Cc1cc(C)c(S(=O)(=O)n2ccc3ccccc32)c(C)c1", "Potency": "active: 23.1 µM"}, {"smiles": "Cc1ccc(NC(=O)COC(=O)c2ccc([N+](=O)[O-])o2)cc1S(=O)(=O)N1CCCCC1", "activity change, negative = cytotoxic": "inactive: 30.5%"}, {"smiles": "C/C(=N/NC(=O)c1cccs1)c1ccc(NC(=O)COc2ccc(Cl)cc2Cl)cc1", "activity change, negative = cytotoxic": "inactive: -10.8%"}, {"smiles": "COC(=O)C1CC(=O)c2sccc2C1", "note": "(stereo not given)", "Potency": "inconclusive: 13 µM [rising, partial curve]"}, {"smiles": "COc1ccc(C(=O)c2c3ccc([N+](=O)[O-])cc3[n+]([O-])n2CCCN)cc1", "Potency": "inconclusive: 14.6 µM [cytotoxic, partial curve, poor fit]"}, {"smiles": "COC(=O)c1ccc(-n2ccnc2)cc1", "Potency": "inconclusive: 23.1 µM [rising, single point]"}, {"smiles": "COc1ccc(CN(C)C(=O)COC(=O)c2c(-c3ccccc3Cl)noc2C)cc1", "activity change, negative = cytotoxic": "inactive: -15.7%"}, {"smiles": "CN1CCN(c2cc(-c3ccccc3)nc3cc(-c4ccc(F)cc4)nn23)CC1", "Potency": "inconclusive: 20.6 µM [cytotoxic, single point]"}, {"smiles": "CCn1c(=O)c(C(=O)Nc2nc3ccccc3[nH]2)c(O)c2ccccc21", "Potency": "active: 11.6 µM"}, {"smiles": "COc1cccc(NC(=O)[C@H](Cc2c[nH]c3ccccc23)NC(=O)[C@@H]2Cc3ccccc3CN2)c1", "Potency": "inconclusive: 29.1 µM [cytotoxic, single point]"}, {"smiles": "COc1cc(NC(=O)Cn2ccc3ccccc3c2=O)cc(OC)c1OC", "activity change, negative = cytotoxic": "inactive: -1.13%"}, {"smiles": "Cc1ccccc1Cn1c(=O)c2c(nc3n2CCCN3Cc2ccccc2)n(C)c1=O", "Potency": "inconclusive: 20.6 µM [cytotoxic, single point]"}, {"smiles": "Cc1ccc(S(=O)(=O)Nc2ccccc2CNc2ncc(Br)cc2Br)cc1", "Potency": "inconclusive: 29.1 µM [cytotoxic, single point]"}, {"smiles": "O=C(O)c1ccc(Nc2nc(-c3ccc([N+](=O)[O-])cc3)nc3ccccc23)cc1", "Potency": "inconclusive: 18.4 µM [cytotoxic, partial curve, poor fit]"}, {"smiles": "O=C(NCCN1CCC(n2c(=O)[nH]c3ccccc32)CC1)C(c1ccccc1)c1ccccc1", "activity change, negative = cytotoxic": "inconclusive: -60.7%"}, {"smiles": "COc1ccc(OC)c(-c2nc3c(C)n[nH]c(=O)c3[nH]2)c1", "activity change, negative = cytotoxic": "inactive: 7.84%"}, {"smiles": "O=C(NC(NC(=S)Nc1ccccc1Cl)C(Cl)(Cl)Cl)c1cccc(Cl)c1", "note": "(stereo not given)", "Potency": "inconclusive: 20.6 µM [cytotoxic, partial curve, poor fit]"}, {"smiles": "Cc1ccc(C(Sc2ccccc2)C(Cn2cncn2)C(=O)c2ccccc2)cc1", "note": "(stereo not given)", "Potency": "inconclusive: 25.9 µM [cytotoxic, single point]"}, {"smiles": "C[C@@H](C(=O)Nc1nc(-c2ccccn2)cs1)N1C(=O)C2CCCCC2C1=O", "note": "(stereo not given in full)", "Potency": "inconclusive: 16.4 µM [cytotoxic, single point]"}, {"smiles": "CCOc1ccc(S(=O)(=O)Nc2cc(Cl)ccc2O)cc1", "Potency": "inconclusive: 29.1 µM [cytotoxic, single point]"}, {"smiles": "COc1ccc(C(=O)/C=C/c2ccccc2)c(OC)c1", "Potency": "inconclusive: 18.4 µM [cytotoxic, single point]"}, {"smiles": "O=C(CNc1ccc2ccccc2c1)N/N=C/c1ccc([N+](=O)[O-])o1", "Potency": "inconclusive: 29.1 µM [cytotoxic, single point]"}, {"smiles": "CN1C(=O)C(O)(CC(=O)/C=C/c2ccco2)c2cc(Br)ccc21", "note": "(stereo not given)", "Potency": "inconclusive: 18.4 µM [cytotoxic, partial curve, poor fit]"}]}]}
